The source of these data is PubChem BioAssay AID493014 (National Center for Advancing Translational Sciences (NCATS), 2011).

Values joined by “and” are separate entries in the source; they are usually repeats but may differ in a detail not shown here. Equal entries are not always repeated. This is one part of the list. These are further read-outs of the screen, such as a control signal, another cell line or another target. No call is given for them. Compounds called inactive in the main read-out are mostly missing here. Words in brackets tell the shape of the fitted curve; partial curves, single points and poor fits give uncertain potencies.

The test in a line: qHTS Assay to Find Inhibitors of Chronic Active B-Cell Receptor Signaling. Particulars: ABC-DLBCL IkBa-CBG/CBR reporter, luminescence ratio (green luciferase fused to IkBa over red control in TMD8 lymphoma cells), 4 h. In a few lines: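 Doxycycline induced both beetle luciferases in TMD8 lymphoma cells; IKK-driven degradation limits the IkappaBalpha-fused green signal, while red luminescence normalises for cell number and nonspecific effects. Compounds tested up to 46 uM, 4 hrs.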

Setting [1] is: measured here: CBR red luminescence, cell number.
Where [2] appears, read: measured here: IkBa-CBG green luminescence.

In the case of `COc1ccc(N=N/C(=C\O)C(=O)c2cccs2)cc1`, the AC50 – broadly, the midpoint of the concentration-response curve, whichever way the signal moves – is 6.31 µM [rising, partial curve] under setting [1] and 11.2 µM [falling, partial curve, poor fit] under setting [2].

In the case of `O=C(Nc1cccc(Cl)c1)N(Cc1nc2ccccc2c(=O)[nH]1)C1CCCC1`, the AC50 under setting [1] was 12.6 µM [rising, partial curve, poor fit].

As for `O=C(NNC(=O)c1cc(C(F)(F)F)cc(C(F)(F)F)c1)c1ccc(Cl)cc1`, the AC50 under setting [1] was 6.31 µM [rising, single point].

`COC(=O)Cn1c(=NC(=O)c2ccc(S(=O)(=O)N3CCOCC3)cc2)sc2cc(S(N)(=O)=O)ccc21`: the AC50 under setting [1] is 2.51 µM [rising, full curve, poor fit].

For `Cc1ccc(C(c2nnnn2Cc2ccccc2)N2CCN(Cc3ccccc3)CC2)cc1` (stereo unspecified), under setting [1], the AC50 is 13 µM [falling, single point].

`Cn1cc(/C=C(\C#N)C(=O)Nc2ccccc2O)c2ccccc21`: the AC50 under setting [1] is 2.24 µM [falling, partial curve, poor fit].

`CC[C@]12c3[nH]c4cc(-c5ccco5)ccc4c3CCN1C(=O)[C@@H](CC(=O)NCCC1=CCCCC1)C[C@@H]2C(=O)N1CCN(C(=O)c2ccco2)CC1`: the AC50 under setting [1] was 0.731 µM [rising, full curve, poor fit].

Turning to `CN(C)S(=O)(=O)NCCNC(=O)c1cc(OCC(F)(F)F)ccc1OCC(F)(F)F`, the AC50 under setting [1] was 28.2 µM [rising, single point].

Take `O=C(Nc1ccc(F)cc1)c1cccc2c1C(=O)N(CC1CCCO1)C2` (stereo unspecified): the AC50 under setting [2] is 3.55 µM [rising, partial curve, poor fit].

For `O=C(CSc1nnc(-c2ccco2)o1)c1ccc[nH]1`, the AC50 under setting [1] was 10 µM [falling, partial curve].

In the case of `O=C(O)c1ccccc1CSC1=NCCS1`, the AC50 under setting [1] is 2 µM [rising, partial curve, poor fit].

Turning to `O=C(NCc1ccc(F)cc1)C(=O)c1cn(CC(=O)N2CCCC2)c2ccccc12`, under setting [1], the AC50 was 6.31 µM [falling, full curve, poor fit].

For the compound `C=CCSc1nc(C)c(CCC(C)C)c(=O)[nH]1`, under setting [1], the half-maximal activity concentration (AC50) is 35.5 µM [rising, partial curve, poor fit].

As to `C/C(=N\NC(=O)c1ccccn1)c1ccc(C(=O)O)s1`, the AC50 under setting [1] is 3.98 µM [falling, full curve].

As to `COc1ccc(C(=O)c2sc(Nc3ccccc3)nc2N)cc1`, the half-maximal activity concentration (AC50) under setting [1] was 3.55 µM [falling, partial curve] and 10 µM [falling, partial curve, poor fit].

For `O=C(Cc1ccccc1)NC(=S)Nc1ccc(N2CCCCC2)cc1`, the AC50 under setting [1] is 0.184 µM [rising, full curve].

In the case of `CCN(CC)c1ccc(/C=N/Nc2ccccc2)c(O)c1`, under setting [1], the AC50 is 14.1 µM [rising, partial curve, poor fit].

`CCNS(=O)(=O)c1c(C)cc(N2CCCC2=O)cc1C`: the AC50 under setting [1] is 32.6 µM [rising, single point].

As to `c1ccc(-c2ccc(OCCOCCn3cncn3)cc2)cc1`, the concentration at half-maximal activity (AC50) under setting [1] is 2.06 µM [rising, partial curve, poor fit].

For the compound `CC(C)CN(C(=O)c1cccc(S(=O)(=O)N2CCN(Cc3ccccc3)CC2)c1)C1CCS(=O)(=O)C1` (stereo unspecified), the concentration at half-maximal activity (AC50) under setting [1] is 13 µM [falling, partial curve, poor fit].

For the compound `COc1cccc(N2CC(NC(=O)c3cc(Cl)ccc3OC)CC2=O)c1` (stereo unspecified), the AC50 under setting [1] was 35.5 µM [falling, partial curve, poor fit].

Regarding `O=C1CCN(Cc2ccccc2)C(=O)N1c1ccccc1`, the concentration at half-maximal activity (AC50) under setting [1] was 0.282 µM [falling, partial curve, poor fit].

As to `CC(Cl)C(=O)Nc1ncc(C(F)(F)F)cc1Cl` (stereo unspecified), the AC50 under setting [1] was 6.51 µM [falling, single point].

Regarding `Cc1ccc(C(CC(=O)NCCCN(C)C)c2ccc(OC(C)C)cc2)cc1` (stereo unspecified), the AC50 under setting [1] is 20 µM [falling, single point].

On to `Cc1cc(C)nc(N/N=C/c2ccccc2OCc2ccc([N+](=O)[O-])cc2)n1`, for which the AC50 under setting [1] is 2.06 µM [falling, partial curve].

As for `CN(C(=S)NC(=O)/C=C/c1ccc(F)cc1)C1CCCCC1`, the AC50 under setting [1] is 1.3 µM [rising, full curve].

For `C/C(=N\Nc1ccc(Cl)c(C(=O)O)c1)c1cccs1`, under setting [1], the AC50 is 7.08 µM [falling, partial curve].

On to `Cc1ccc(-n2c(SCC(=O)NCc3ccco3)nc3c([nH]c4ccccc43)c2=O)cc1`, for which the AC50 under setting [1] is 2 µM [rising, full curve, poor fit].

For the compound `O=C(NCc1cccnc1)C(=O)Nc1ccc2c(c1)OCO2`, the AC50 under setting [1] is 28.2 µM [falling, single point].

Turning to `COc1ccccc1-c1nnc(NC(=O)Cc2ccccc2)o1`, under setting [1], the AC50 was 17.8 µM [falling, single point].

For `Cn1c(O)c(N=NC(=S)Nc2ccccc2F)c2cc(S(=O)(=O)N3CCOCC3)ccc21`, the AC50 by setting is: under setting [1], 5.62 µM [rising, single point]; under setting [2], 3.98 µM [falling, full curve].

For the compound `N#Cc1ccc(CSc2nnc(Nc3ccccc3)s2)cc1`, the AC50 under setting [1] was 6.31 µM [rising, single point].

With `C[C@H](CO)N1C[C@H](C)[C@@H](CN(C)S(=O)(=O)c2ccc(F)cc2)Oc2c(NC(=O)Nc3ccc(C(F)(F)F)cc3)cccc2C1=O`, the AC50 under setting [1] was 23.1 µM [falling, partial curve, poor fit].

Turning to `O=C(Cc1ccc([N+](=O)[O-])cc1)N/N=C/c1ccccc1F`, the AC50 under setting [1] is 11.2 µM [rising, partial curve].

`Cc1ccc(/C=C2\SC(=S)N(CCCC(=O)Nc3cc(C)on3)C2=O)cc1`: under setting [1], the AC50 is 3.16 µM [falling, full curve, poor fit].

`O=c1[nH]cnc2c1c(-c1ccccc1)cn2-c1ccc(F)cc1`: the AC50 under setting [1] is 18.4 µM [falling, single point].

On to `COc1ccccc1Nc1nc(N)nc(CN2CCc3ccccc3C2)n1`, for which the AC50 is 18.4 µM [rising, partial curve] under setting [1] and 18.4 µM [falling, single point] under setting [2].

As to `N#CC(C#N)=C1NC2(CCCC2)Cc2ccccc21`, the concentration at half-maximal activity (AC50) under setting [1] is 16.4 µM [rising, partial curve, poor fit].

Consider `Cc1ccc(C(NC(=O)c2ccccc2)C(Cl)(Cl)Cl)cc1` (stereo unspecified), for which the AC50 under setting [1] is 0.82 µM [falling, partial curve, poor fit].

Take `COc1ccc(NC(=O)Nc2cccc3c2O[C@H](CN(C)S(=O)(=O)c2c(C)noc2C)[C@@H](C)CN([C@H](C)CO)C3=O)cc1`: the half-maximal activity concentration (AC50) under setting [1] is 14.6 µM [rising, partial curve].

As for `COCc1[nH]nc2c1C(c1cccc(OC)c1)C(C#N)=C(N)O2` (stereo unspecified), the AC50 under setting [1] is 6.31 µM [falling, full curve, poor fit].

For the compound `CC(C)c1ccc(NC(=O)COC(=O)COc2ccccc2)cc1`, under setting [1], the AC50 is 29.1 µM [rising, partial curve, poor fit].

For `CCc1cc([N+](=O)[O-])cc(CC)c1N`, the half-maximal activity concentration (AC50) under setting [1] is 5.8 µM [rising, full curve, poor fit].

`O=C(Nc1ccccc1)c1ccc(CSc2ncccn2)cc1`: under setting [1], the AC50 was 11.2 µM [falling, partial curve].

Turning to `COc1ccc(NC(=O)CCC(=O)c2cccs2)cc1Cl`, the AC50 under setting [1] is 8.91 µM [rising, partial curve].

`COCc1nnc(NC(=O)c2sc3ccccc3c2Cl)s1`: under setting [1], the AC50 was 20 µM [falling, single point].

Consider `CCc1ccc(C2=CC(c3c(F)cccc3Cl)n3c(nc4ccccc43)N2)cc1` (stereo unspecified), for which the AC50 under setting [1] was 12.6 µM [falling, partial curve].

With `COC(=O)C1=C(C(=O)OC)[C@@H]2N(C)c3ccc(OC)cc3[C@@]23C[C@@H](C(=O)OC)N(C(=O)C2CCC2)C3=N1`, the half-maximal activity concentration (AC50) under setting [1] was 11.2 µM [rising, partial curve, poor fit].

For `CCOC(=O)CN1C(=O)S/C(=C/c2ccco2)C1=O`, under setting [1], the AC50 is 11.2 µM [rising, partial curve].

On to `NC(=O)CSc1nc2ccccc2n1Cc1ccccc1F`, for which the AC50 under setting [1] was 32.6 µM [falling, partial curve, poor fit].

Take `O=C(Nc1ccc2c(c1)OCO2)Nc1ccc(Br)cn1`: the AC50 under setting [1] is 29.1 µM [rising, single point].

Regarding `CCCC(=O)NC(=S)Nc1ccc(S(=O)(=O)Nc2ccc(OCC)cc2)cc1`, the AC50 under setting [1] is 14.6 µM [falling, partial curve, poor fit].

As to `O=C(NCC1CCCO1)c1ccc(COc2ccccc2Br)cc1` (stereo unspecified), the AC50 under setting [1] is 16.4 µM [falling, single point].

Turning to `CCOc1ccc(N2C(=O)CC(Sc3ccccc3C(=O)O)C2=O)c([N+](=O)[O-])c1` (stereo unspecified), the AC50 under setting [1] was 35.5 µM [falling, single point].

As for `CCCCSc1ccc(NC(=O)c2cccnc2)cc1`, under setting [1], the AC50 is 29.1 µM [rising, single point].

Regarding `O=c1c2ccccc2oc2c1oc1ccccc12`, the AC50 reads like this: under setting [1], 0.461 µM [rising, full curve]; under setting [2], 25.9 µM [rising, partial curve, poor fit].

For the compound `O=C(NC1CCCCCC1)c1ccc2c(=O)n3c(nc2c1)CCCCC3`, the AC50 under setting [1] was 20.6 µM [falling, single point].

`Cn1nnc(-c2ccc(OCc3ccccc3F)cc2)n1`: the AC50 under setting [1] is 9.2 µM [rising, partial curve, poor fit].

As to `CCn1c(CO)nc2c1c(=O)[nH]c(=O)n2Cc1ccccc1`, the AC50 under setting [1] is 6.31 µM [falling, single point].

For the compound `Cc1cc(C(=O)Nc2sc3c(c2C#N)CCC(C)C3)no1` (stereo unspecified), the AC50 under setting [1] is 2.06 µM [rising, full curve, poor fit].

For the compound `Nc1nn(-c2ccccc2)nc1C(=O)OCc1ccccc1`, under setting [1], the concentration at half-maximal activity (AC50) was 22.4 µM [falling, single point].

Regarding `N/C(CN1CCCC1=O)=N\OC(=O)c1ccc(Cl)cc1`, under setting [1], the AC50 is 2.06 µM [rising, partial curve, poor fit].
